Amino acid sequences for entries named in this document (tags omitted).
UniProt O09106: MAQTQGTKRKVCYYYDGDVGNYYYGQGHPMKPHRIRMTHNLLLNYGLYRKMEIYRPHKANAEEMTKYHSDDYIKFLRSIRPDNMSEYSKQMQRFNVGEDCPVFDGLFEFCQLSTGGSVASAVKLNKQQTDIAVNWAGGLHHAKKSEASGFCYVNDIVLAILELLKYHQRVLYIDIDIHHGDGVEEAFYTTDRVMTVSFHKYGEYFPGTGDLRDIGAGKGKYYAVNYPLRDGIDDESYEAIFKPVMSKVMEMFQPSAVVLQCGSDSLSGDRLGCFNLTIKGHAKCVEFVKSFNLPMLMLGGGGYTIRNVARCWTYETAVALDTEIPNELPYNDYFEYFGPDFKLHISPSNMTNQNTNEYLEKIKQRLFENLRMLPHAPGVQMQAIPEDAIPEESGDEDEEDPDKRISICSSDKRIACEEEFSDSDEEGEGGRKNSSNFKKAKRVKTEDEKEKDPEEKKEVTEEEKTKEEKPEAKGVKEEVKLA
UniProt P70288: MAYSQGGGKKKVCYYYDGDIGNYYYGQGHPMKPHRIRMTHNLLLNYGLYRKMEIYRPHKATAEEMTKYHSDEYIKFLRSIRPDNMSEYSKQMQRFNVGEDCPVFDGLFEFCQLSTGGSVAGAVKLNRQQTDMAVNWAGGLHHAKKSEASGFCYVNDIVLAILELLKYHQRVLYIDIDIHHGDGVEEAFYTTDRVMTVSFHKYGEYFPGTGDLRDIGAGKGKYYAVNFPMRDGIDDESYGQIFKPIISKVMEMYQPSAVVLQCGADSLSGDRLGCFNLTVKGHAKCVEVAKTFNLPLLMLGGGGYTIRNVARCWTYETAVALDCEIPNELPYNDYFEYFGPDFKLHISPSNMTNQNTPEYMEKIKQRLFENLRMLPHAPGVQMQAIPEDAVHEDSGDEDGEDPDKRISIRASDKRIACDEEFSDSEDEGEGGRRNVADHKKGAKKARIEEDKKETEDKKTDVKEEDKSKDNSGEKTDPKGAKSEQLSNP

In article PMC4749557:

Target: T1, FLAG–HA tagged Prdm14 (FH-Prdm14), stably expressed in mESCs (mouse) (UniProt E9Q3T6)
T1 sequence: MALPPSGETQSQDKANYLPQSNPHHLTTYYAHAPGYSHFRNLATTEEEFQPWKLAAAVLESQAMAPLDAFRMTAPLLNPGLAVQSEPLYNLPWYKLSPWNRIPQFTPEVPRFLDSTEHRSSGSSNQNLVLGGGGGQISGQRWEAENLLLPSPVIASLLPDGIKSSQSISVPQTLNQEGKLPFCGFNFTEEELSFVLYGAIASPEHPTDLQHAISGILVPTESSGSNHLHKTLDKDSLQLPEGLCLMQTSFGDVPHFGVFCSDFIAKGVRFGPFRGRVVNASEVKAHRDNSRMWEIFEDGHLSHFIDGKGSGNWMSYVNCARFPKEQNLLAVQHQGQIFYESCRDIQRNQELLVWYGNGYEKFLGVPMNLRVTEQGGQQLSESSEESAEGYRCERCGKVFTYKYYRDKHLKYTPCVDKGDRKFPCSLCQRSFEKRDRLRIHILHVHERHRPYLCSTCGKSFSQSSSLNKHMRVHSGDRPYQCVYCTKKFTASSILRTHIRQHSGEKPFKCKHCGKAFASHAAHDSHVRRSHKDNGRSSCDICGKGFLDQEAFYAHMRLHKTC
Assay: affinity purification with mass spectrometry; two-step immunopurification (FLAG M2 beads with peptide elution, then HA antibody) from FH-Prdm14 mESC nuclear extracts, wt mESCs as control; SDS-PAGE, silver stain, mass spectrometry

binding | Substance
binds | HDAC1, endogenous in mESCs (from UniProt O09106 1-482) (enzyme)
binds | HDAC2, endogenous in mESCs (from UniProt P70288 1-488) (enzyme)

Results are given in words; binding and its absence hold for the method and conditions named. Binding seen in cells or lysates may run through a third protein. Here binding means that the protein was enriched with, or labelled near, the bait; the list need not be complete. Sequences can lack the tags named with a protein.
